Reference: PubChem BioAssay AID330 (DTP/NCI, 2004)
The list is a part of this screen's results and no random one: it gathers tests that were run many times, whatever their T/C, doses with no T/C, and many T/C values between a quarter and a half above the control. Other doses and runs of a compound stand elsewhere. T/C gives the treated animals as a percentage of the vehicle group. Some entries give survivors of the animals treated and no T/C: the source holds a T/C of zero for them, seemingly a mark for toxic or unscored doses. Some doses without a T/C left all or most animals alive at the check, yet need not have been tolerated: survival well below the control is almost never listed, so the zero probably covers shortened survival too. Survivors were counted at the toxicity check, usually on the fifth day, unless a day is given; later deaths do not show. Schedules are NCI's codes, read here as Q, the interval in days (D) or hours (H), X, the number of doses. Some entries hold several experiments; the values are given in rising order. Marks such as (2×) say how often a value occurs here. For survival time, the PubChem record calls one and a half times the control and up active, and a quarter to a half above the control has no call in these data; cut-offs in other NCI protocols can differ. Some T/C values carry the count of animals alive at the toxicity check (mostly the fifth day); without a count, all were alive then.

Tested on: P388 leukemia ip, CD2F1 mice, survival T/C
Test: NCI In Vivo Anticancer Drug Screen. Data for tumor model P388 Leukemia (intraperitoneal) in CD2F1 (CDF1) mice
Details: T/C endpoint: median survival time, higher T/C = longer survival
[1] = dose: 50.0 mg/kg/injection, schedule: Q01DX009 (ip), vehicle: water
[2] = dose: 100.0 mg/kg/injection, schedule: Q01DX009 (ip), vehicle: saline
[3] = dose: 200.0 mg/kg/injection, schedule: Q01DX009 (ip), vehicle: Klucel (hydroxypropylcellulose) (HPC)
[4] = dose: 200.0 mg/kg/injection, schedule: Q01DX009 (ip), vehicle: saline with Tween-80
[5] = dose: 50.0 mg/kg/injection, schedule: Q01DX009 (ip), vehicle: saline with Tween-80
[6] = dose: 100.0 mg/kg/injection, schedule: Q01DX009 (ip), vehicle: saline with Tween-80
[7] = dose: 200.0 mg/kg/injection, schedule: Q01DX009 (ip), vehicle: saline
[8] = dose: 200.0 mg/kg/injection, schedule: Q01DX005 (ip), vehicle: Klucel (hydroxypropylcellulose) (HPC)
[9] = dose: 400.0 mg/kg/injection, schedule: Q01DX009 (ip), vehicle: saline with Tween-80

## Nc1n[n+](-c2ccccc2)no1
dose: 6.25 mg/kg/injection, schedule: Q01DX005 (ip), vehicle: water
  T/C: 108, 112, 113, 114 % of control
dose: 6.25 mg/kg/injection, schedule: Q01DX009 (ip), vehicle: water
  T/C: 142 % of control
dose: 6.25 mg/kg/injection, schedule: Q03HX015 (ip), vehicle: water
  T/C: 126 and 130 % of control
dose: 12.5 mg/kg/injection, schedule: Q01DX005 (ip), vehicle: water
  T/C: 119, 122, 135, 138 % of control
dose: 12.5 mg/kg/injection, schedule: Q01DX009 (ip), vehicle: saline
  T/C: 141 % of control
dose: 12.5 mg/kg/injection, schedule: Q01DX009 (ip), vehicle: water
  T/C: 137 % of control
dose: 12.5 mg/kg/injection, schedule: Q03HX015 (ip), vehicle: water
  T/C: 139 and 147 % of control [4 of 6 alive]
dose: 25.0 mg/kg/injection, schedule: Q01DX005 (ip), vehicle: water
  T/C: 142 [5 of 6 alive], 144, 150, 151 % of control
dose: 25.0 mg/kg/injection, schedule: Q03HX003 (ip), vehicle: water
  T/C: 127 % of control
dose: 50.0 mg/kg/injection, schedule: Q01DX005 (ip), vehicle: water
  T/C: 130 [5 of 6 alive], 153, 168, 180 % of control
[1]
  T/C: 132 % of control [5 of 6 alive]
  survivor count: 5 of 6 and 6 of 6
dose: 50.0 mg/kg/injection, schedule: Q03HX003 (ip), vehicle: water
  T/C: 132 % of control
dose: 50.0 mg/kg/injection, schedule: Q03HX015 (ip), vehicle: water
  survivor count: 3 of 6
dose: 100.0 mg/kg/injection, schedule: Q01DX005 (ip), vehicle: water
  survivor count: 3 of 6 and 5 of 6
[2]
  survivor count: 3 of 6
dose: 100.0 mg/kg/injection, schedule: Q01DX009 (ip), vehicle: water
  survivor count: 0 of 6 and 2 of 6
dose: 100.0 mg/kg/injection, schedule: Q03HX003 (ip), vehicle: water
  survivor count: 0 of 6
dose: 200.0 mg/kg/injection, schedule: Q01DX001 (ip), vehicle: water
  survivor count: 0 of 6
dose: 400.0 mg/kg/injection, schedule: Q01DX001 (ip), vehicle: water
  survivor count: 0 of 6

## S=C(Nc1ccc(Cl)c(Cl)c1)SCc1ccc2c(c1)OCO2
dose: 50.0 mg/kg/injection, schedule: Q01DX009 (ip), vehicle: Klucel (hydroxypropylcellulose) (HPC)
  T/C: 127 % of control
[3]
  survivor count: 6 of 6
dose: 400.0 mg/kg/injection, schedule: Q01DX009 (ip), vehicle: Klucel (hydroxypropylcellulose) (HPC)
  survivor count: 3 of 6

## CNC(=O)CCl
dose: 400.0 mg/kg/injection, schedule: Q04DX003 (ip), vehicle: saline
  survivor count: 0 of 6

## C=C(C(=O)OC1C/C(C)=C/C(O)C/C(C)=C/C2OC(=O)C(=C)C21)C(C)O (stereo unspecified)
dose: 100.0 mg/kg/injection, schedule: Q04DX002 (ip), vehicle: saline with Tween-80
  T/C: 125 % of control
dose: 200.0 mg/kg/injection, schedule: Q04DX002 (ip), vehicle: Klucel (hydroxypropylcellulose) (HPC)
  survivor count: 0 of 6

## CNC(=S)SCc1ccccc1
[4]
  survivor count: 3 of 6

## CCOc1ccc(Nc2ccc(/C(=C3\C=CC(=[N+](CC)Cc4cccc(S(=O)(=O)O)c4)C=C3C)c3ccc(N(CC)Cc4cccc(S(=O)(=O)O)c4)cc3C)cc2)cc1
[4]
  survivor count: 2 of 6

## CC(=O)NCCSSSCCNC(C)=O
dose: 200.0 mg/kg/injection, schedule: Q01DX005 (ip), vehicle: saline
  survivor count: 2 of 5

## CC(=O)c1c(O)c(C)c(O)c2c1OC1=CC(=O)C(C(C)=O)C(=O)C12C (stereo unspecified)
dose: 25.0 mg/kg/injection, schedule: Q01DX009 (ip), vehicle: saline with Tween-80
  T/C: 97, 100, 101, 112 % of control
dose: 25.0 mg/kg/injection, schedule: Q01DX009 (ip), vehicle: saline
  T/C: 128 % of control
[5]
  T/C: 96 [5 of 6 alive], 99, 100, 101, 102, 108, 113, 115 % of control
[6]
  T/C: 107, 108, 118 [4 of 6 alive], 125, 125 [5 of 6 alive], 126 [5 of 6 alive], 141 % of control [5 of 6 alive]
  survivor count: 3 of 6
[2]
  survivor count: 2 of 3
[4]
  survivor count: 0 of 3, 0 of 6 (3×), 3 of 6, 6 of 6
[7]
  survivor count: 0 of 3

## O=C(O)CCCSC1=CC(=O)c2ccccc2C1=O
dose: 25.0 mg/kg/injection, schedule: Q04DX003 (ip), vehicle: DMSO
  survivor count: 0 of 6
dose: 50.0 mg/kg/injection, schedule: Q04DX003 (ip), vehicle: DMSO
  survivor count: 0 of 6
dose: 100.0 mg/kg/injection, schedule: Q04DX003 (ip), vehicle: DMSO
  survivor count: 0 of 6
dose: 200.0 mg/kg/injection, schedule: Q04DX003 (ip), vehicle: DMSO
  survivor count: 0 of 6

## OCCC[N+]12CCCN1CCC2
[7]
  survivor count: 0 of 6

## COc1cc(C(N)CCc2ccc3c(c2)OCO3)cc(OC)c1OC (stereo unspecified)
[8]
  survivor count: 0 of 5

## COc1cc2c(cc1O)C(=O)CCC(C(=O)O)=C2
[4]
  survivor count: 6 of 6
[9]
  survivor count: 6 of 6

## S=c1nc[nH]c2c1ncn2CN1CCCCC1
dose: 100.0 mg/kg/injection, schedule: Q01DX009 (ip), vehicle: saline sonified
  T/C: 131 % of control
[6]
  T/C: 127 % of control
[4]
  survivor count: 5 of 6
[9]
  survivor count: 0 of 6

## CC(=O)OC(C)(C)/C=C/C(=O)[C@](C)(O)[C@H]1[C@H](O)C[C@@]2(C)[C@@H]3CC=C4[C@@H](C[C@H](O)[C@H](O)C4(C)C)[C@]3(C)C(=O)C[C@]12C
dose: 40.0 mg/kg/injection, schedule: Q01DX009 (ip), vehicle: saline with Tween-80
  survivor count: 4 of 5
dose: 80.0 mg/kg/injection, schedule: Q01DX009 (ip), vehicle: saline
  survivor count: 1 of 6
dose: 120.0 mg/kg/injection, schedule: Q01DX009 (ip), vehicle: saline
  survivor count: 0 of 6
dose: 180.0 mg/kg/injection, schedule: Q01DX009 (ip), vehicle: saline
  survivor count: 0 of 6
dose: 266.0 mg/kg/injection, schedule: Q01DX009 (ip), vehicle: saline
  survivor count: 0 of 6

## COc1cccc(C(=O)CC[N+](C)(C)C)c1
[5]
  survivor count: 2 of 6
[6]
  survivor count: 0 of 6
[4]
  survivor count: 0 of 6

## CCCN(CCC)CN1C(=O)c2ccccc2C1=O
[8]
  T/C: 135 % of control

## C#CCOC1CC(C)(O)Cc2cc3c(c(O)c21)C(=O)c1c(O)cc2c(c1C3=O)OC1OC2(C)C(O)C(N(C)C)C1O (stereo unspecified)
dose: 2.5 mg/kg/injection, schedule: Q01DX009 (ip), vehicle: other
  T/C: 130 % of control
dose: 5.0 mg/kg/injection, schedule: Q01DX009 (ip), vehicle: other
  T/C: 137 % of control
dose: 10.0 mg/kg/injection, schedule: Q01DX009 (ip), vehicle: other
  T/C: 140 % of control
dose: 40.0 mg/kg/injection, schedule: Q01DX009 (ip), vehicle: other
  survivor count: 3 of 6

## COc1cc2c[n+]3ccc4ccccc4c3c(N)c2cc1OC
dose: 200.0 mg/kg/injection, schedule: Q04DX003 (ip), vehicle: distilled water + Tween-80
  survivor count: 4 of 6
dose: 400.0 mg/kg/injection, schedule: Q04DX003 (ip), vehicle: distilled water + Tween-80
  survivor count: 0 of 6

## CCOC(=O)Nc1nc2ccc(NC(C)=O)cc2s1
dose: 100.0 mg/kg/injection, schedule: Q01DX009 (ip), vehicle: Klucel (hydroxypropylcellulose) (HPC)
  survivor count: 6 of 6
[3]
  survivor count: 6 of 6

## Nc1ccc2[nH]c3cnccc3c2c1
dose: 200.0 mg/kg/injection, schedule: Q01DX009 (ip), vehicle: other
  survivor count: 1 of 3

## O=C1OCCC12C(c1ccccc1)C1(CCOC1=O)C2c1ccccc1 (stereo unspecified)
dose: 15.0 mg/kg/injection, schedule: Q01DX005 (ip), vehicle: Klucel (hydroxypropylcellulose) (HPC)
  survivor count: 6 of 6
dose: 30.0 mg/kg/injection, schedule: Q01DX005 (ip), vehicle: Klucel (hydroxypropylcellulose) (HPC)
  survivor count: 6 of 6
dose: 60.0 mg/kg/injection, schedule: Q01DX005 (ip), vehicle: Klucel (hydroxypropylcellulose) (HPC)
  survivor count: 6 of 6
dose: 120.0 mg/kg/injection, schedule: Q01DX005 (ip), vehicle: Klucel (hydroxypropylcellulose) (HPC)
  survivor count: 5 of 6
